According to patent US5504069A, “Inhibition of trauma-induced tumor growth” (Biomeasure, Inc., priority 1993, dated 1996):
Values joined by “and” are separate entries in the source; they are usually repeats but may differ in a detail not shown here. Identical values can stand only once. At least one peptide structure holds a part that was inferred or is arguable (an end, a ring closure or a residue).

Experiments:
[1] = test system: undifferentiated human breast tumor cells, MX-1; test: Surgical trauma-induced proliferation of human breast tumor xenograft, topical treatment; format: in vivo, athymic nude female mice; details: for Tumor Weight Day 14: 10 mg/ml in 10% DMSO/saline, b.i.d., mean ± s.e.m.
B16-F10 melanoma cells = test: Surgical trauma-induced proliferation of malignant melanoma, topical treatment; format: in vivo, Syngeneic C57BL/6 conventional mice; details: for Tumor Weight Day 12: day 0, 0.05 ml 50% DMSO/saline containing 10 mg/ml, b.i.d., q.d. 1-11, mean ± s.e.m.
[2] = test system: cutaneous malignant melanoma (B16-F10); test: Surgical trauma-induced proliferation of malignant melanoma, s.c. or intralesional treatment; format: in vivo, syngeneic C57BL/6 conventional mice; details: for Tumor Weight Day 15: b.i.d., q.d. 2-14, mean ± s.e.m.
[3] = test system: 2PR121D(1), a prostate tumor cell line; test: Surgical trauma-induced proliferation of s.c. prostate tumor, topical treatment; format: in vivo, Noble male rats; details: for Change in Tumor Weight Day 6-17: 10 mg/ml in 10% DMSO/saline, b.i.d., mean ± s.e.m.
11095 rat prostate tumor = test: Suppression of the proliferative surge following surgical trauma (11095 prostate tumor); format: in vivo, Fischer 344 strain rats
[4] = Group 4/Group 3 (vehicle), topical to tumor
[5] = Group 6/Group 5 (vehicle), topical to surgery area

For CC(C)[C@@H]1NC(=O)[C@H](CCCCN)NC(=O)[C@@H](Cc2c[nH]c3ccccc23)NC(=O)[C@H](Cc2ccc(O)cc2)NC(=O)[C@@H](NC(=O)[C@H](N)Cc2ccc3ccccc3c2)CSSC[C@@H](C(=O)N[C@H](C(N)=O)[C@@H](C)O)NC1=O [BIM-23014, H-D-β-Nal-Cys-Tyr-D-Trp-Lys-Val-Cys-Thr-NH2], the “Percent Test/Control” value [1, 4] was 147%, the “Tumor Weight Day 14” value ([1]; Group 4: surgery left flank day 3, tumor right flank, 0.05 ml topical to tumor) was 500 ± 116 mg and 500 mg and the “Percent Test/Control” value [1, 5] was 72%. The “Tumor Weight Day 14” value ([1]; Group 6: surgery left flank day 3, tumor right flank, 0.05 ml topical to surgery area) was 296 ± 52 mg and 296 mg, the “Percent Test/Control” value (B16-F10 melanoma cells; Group 4/Group 3 (placebo), topical to tumor site) was 89% and the “Tumor Weight Day 12” value (B16-F10 melanoma cells; Group 4: surgery and melanoma in right flank, topical to tumor site) was 527 ± 117 mgs and 527 mgs. For the same molecule, the “Percent Test/Control” value (B16-F10 melanoma cells; Group 6/Group 5 (placebo), topical to surgical area) was 57%, the “Tumor Weight Day 12” value (B16-F10 melanoma cells; Group 6: surgery left flank, melanoma right flank, topical to surgical area) was 488 ± 187 mgs and 488 mgs and the “Percent Test/Control” value ([2]; Group 4/Group 3 (vehicle), no surgical trauma, s.c. distant from the tumor) was 90%. The “Tumor Weight Day 15” value ([2]; Group 4: no surgical trauma, 600 μg/inj. in 25% DMSO/saline s.c., distant from the tumor) was 928 ± 167 mg, the “Percent Test/Control” value ([2]; Group 6/Group 5 (saline vehicle), surgical trauma, intralesional) was 78% and the “Tumor Weight Day 15” value ([2]; Group 6: surgical trauma, 500 μg/inj., s.c., intralesional) was 1581 ± 311 mg. The “Percent Test/Control” value [3, 4] was 98%, the “Change in Tumor Weight Day 6-17” value ([3]; Group 4: surgery left flank day 3, tumor right flank, 0.1 ml topical to tumor) was 2052 ± 196 mgs and 2052 mgs and the “Percent Test/Control” value [3, 5] was 77%. For the same molecule, the “Change in Tumor Weight Day 6-17” value ([3]; Group 6: surgery left flank day 3, tumor right flank, 0.1 ml topical to surgery area) was 1854 ± 328 mgs, the “Percent Test/Control” value (11095 rat prostate tumor; Group 3/Group 1 (untreated shelf control), topical to surgical area) was 48% and the “Tumor Weight Day 9” value (11095 rat prostate tumor; Group 3: surgery day 2, in 40% DMSO/saline topical to surgical area, b.i.d., q.d. 2-9, mean ± s.e.m., p < 0.001 vs Group 1) was 967 ± 135 mg.
